In the supplement of paper PMC3334620:
Whole data set: some 33,000 sequences, median “E-score (-0.5 to 0.5)” near -0.015, cut for the highest 2% near 0.3. Some of the results follow.

Each sequence was assayed against T1, Abf1 (UniProt P14164) (assay: PBM E-score (8-mer binding enrichment) (E-score (-0.5 to 0.5)); higher = stronger / more preferred TF binding). Conditions: protein concentration: 200 nM; construct: GST-full length.
T1 sequence: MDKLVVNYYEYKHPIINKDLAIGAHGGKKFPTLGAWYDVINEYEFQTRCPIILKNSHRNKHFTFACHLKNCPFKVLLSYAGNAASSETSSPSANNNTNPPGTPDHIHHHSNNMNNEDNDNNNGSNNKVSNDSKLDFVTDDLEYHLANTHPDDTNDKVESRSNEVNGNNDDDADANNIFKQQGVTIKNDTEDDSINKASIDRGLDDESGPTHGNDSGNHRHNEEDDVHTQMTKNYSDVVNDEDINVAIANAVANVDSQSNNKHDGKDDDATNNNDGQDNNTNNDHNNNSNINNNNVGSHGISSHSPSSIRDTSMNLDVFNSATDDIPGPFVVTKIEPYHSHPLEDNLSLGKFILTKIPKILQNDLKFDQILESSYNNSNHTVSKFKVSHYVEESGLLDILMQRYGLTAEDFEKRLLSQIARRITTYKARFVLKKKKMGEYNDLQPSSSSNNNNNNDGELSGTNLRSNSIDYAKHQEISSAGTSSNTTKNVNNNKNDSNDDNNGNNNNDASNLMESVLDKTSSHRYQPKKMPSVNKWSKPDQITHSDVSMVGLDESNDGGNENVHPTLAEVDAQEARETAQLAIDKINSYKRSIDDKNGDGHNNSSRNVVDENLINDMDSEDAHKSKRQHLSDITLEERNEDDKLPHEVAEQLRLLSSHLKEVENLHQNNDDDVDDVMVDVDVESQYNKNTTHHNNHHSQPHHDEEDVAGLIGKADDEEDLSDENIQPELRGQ
Experimental: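 Universal 'all 10-mer' protein binding microarrays (Agilent AMADID 015681) probed with GST-tagged S. cerevisiae TFs (full-length or DBD) made by in vitro transcription/translation (PURExpress), about 100-200 nM. Bound TF was detected with fluorescent anti-GST. Each ungapped 8-mer (which stands for itself and its reverse complement) is scored by the PBM enrichment score (E-score), a modified Wilcoxon-Mann-Whitney statistic from -0.5 to +0.5, computed with the Universal PBM Analysis Suite. Scale: above 0.35 generally sequence-specific binding.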

Sequence | PBM E-score
TGCCTGAA | -0.0551
GAGGCATA | -0.0641
CATTTCAA | 0.163
GCTGGAAA | -0.186
AAACGATC | 0.286
CGGCCTCC | -0.155
GAATAGGC | -0.149
AGCTGACC | -0.25
CGCGAACG | -0.0125
AAGGCCGA | -0.0803
ACCTACGC | 0.0281
AGACGTAG | 0.0529
ATGGACGC | 0.0698
AGTAACAT | 0.229
GGGATCCC | -0.211
CAGTCTCA | -0.102
ATGCCAGC | -0.175
AGCATGAT | 0.18
GATCCTCA | 0.019
AGGGCACA | -0.0676
ACCTAAGA | -0.0175
CCGATTTA | -0.0471
AGGAATAA | -0.0671
ACAAATCT | 0.179
ATACCATG | 0.181

3 entries drawn at random from the list so far, as already listed:
Sequence | PBM E-score
ACCTACGC | 0.0281
GAATAGGC | -0.149
ATGGACGC | 0.0698

Later entries:

Sequence | PBM E-score
ACCCTGCC | -0.0587
GGCTCGCA | 0.015
GATGCGAA | 0.038
ATGTATCC | 0.11
GCACAATA | -0.128
ATTGGAAG | -0.0691
AGTAAGGG | -0.02
ATCTAGTG | 0.0606
TGTCGAAA | -0.0585
CGACTTAA | 0.0356
CGAACTGC | 0.0272
AGAAACTG | 0.0645
CTCCTGCC | -0.198
GGCAATAA | -0.0733
GGAAAGCA | -0.00322
CTGGTGAC | 0.249
CAGATTGA | 0.131
CAATAGTG | 0.0351
GGTGGAGA | -0.231
CAAGACTG | -0.0899
GATCAAGC | 0.00038
AGGGGTGG | -0.182
CGCCTGGC | -0.274
ACAAGACG | 0.0792
CACACGTG | 0.11

A section from further up, for reference:
Sequence | PBM E-score
AGTAAGGG | -0.02
ATCTAGTG | 0.0606
TGTCGAAA | -0.0585
CGACTTAA | 0.0356
CGAACTGC | 0.0272
AGAAACTG | 0.0645

Remaining list, next part.

Sequence | PBM E-score
GAGCACCA | -0.0414
CCGCCAAG | -0.295
CATCCGTA | 0.197
AATCTAAG | 0.0341
TCTTGGCA | 0.142
AGTTTAAT | -0.00834
CCTGAGCC | -0.313
ACATGGTC | -0.034
AAACCGCT | -0.0212
CCAACATC | -0.0685
CTACACCA | -0.157
ATTCACCA | -0.0382
CTTGTACA | 0.0566
ACACGTCT | -0.0482
AAACGAGC | 0.185
ACCAAGCC | -0.0773
AGTTGTGG | -0.12
AAGGCTAC | -0.103
CGTTCTGC | 0.168
ACGTGTGG | 0.0381
CTCGGCAC | -0.145
TAGCCGGA | -0.117
GGGCAAAC | -0.0564
CCCAGAAA | -0.197
GAAGAGTA | -0.0231

Sequence | PBM E-score
AACGACAG | 0.196
GACGCCAA | -0.0398
AAATAGAG | -0.137
CCAAGCTA | -0.17
CGGGAACA | 0.153
GGTTGGCA | 0.00596
CTAAGTCA | 0.254
CATTCGTC | 0.222
ATAGCTGC | -0.00161
GCGGGCAA | -0.0707
AATTCGCC | 0.0956
CCCAACTA | -0.0157
CCCGAGAG | -0.242
CTACGTGA | 0.028
ACACCATA | -0.12
CCCATCTA | -0.0904
ACTACGTA | 0.27
ATGATCCA | 0.0885
TAACCATA | -0.128
AATCTAAC | 0.0902
AATATTGT | 0.146
GCGTTTGA | -0.0947
AGCATATC | 0.151
AGCGCTAC | -0.0511
CTGCCATA | -0.0819

Rewritten tab-delimited: entries from further up.
Sequence	PBM E-score
ACTACGTA	0.27
AGCGCTAC	-0.0511

The listing continues:

Sequence | PBM E-score
AAAGAGGG | -0.0837
AATCTTAG | 0.0566
AGTGTTAT | -0.035
GATCCCAC | -0.0169
ATTTGCGC | -0.15
GTAGATGA | 0.165
GGCGAAAC | -0.192
TGGATCCA | 0.00427
CACTACGC | -0.146
ATCCAGGA | 0.0113
GAGCAAAA | -0.0367
CAACTGCG | -0.3
CTCCCTCC | -0.329
AACCATAC | -0.166
TGACTACA | 0.148
CAGGTAGG | -0.155
CACTTGGA | -3e-05
ACTAGTAA | -0.0823
AGAGTCAC | -0.0475
ACATTCGG | -0.0724
GAACAGCC | -0.195
AGGCCCTA | -0.113
AGATACTA | -0.0355
AGCCATCA | 0.175
GACTGAAA | -0.037

Sequence | PBM E-score
AATATTAT | 0.256
CGTTAACC | 0.135
CGAAAACC | 0.197
TCTAGGAA | -0.0176
GAGAAAGA | -0.0528
CTCTCGGC | -0.184
AAGTGGGA | -0.0291
AGCTAGCC | -0.102
CCTCAACC | -0.283
ACTCCGTC | 0.0889
GCCCGAAC | 0.0158
AGTCCCTC | -0.31
GGAAGGAA | -0.216
ATTCGAGA | -0.00241
AAGGTATG | -0.0138
ACTTGTGA | -0.0634
AACACAAG | -0.163
AGAAAGCA | 0.0861
TGAAAACA | 0.0957
ACCCACCC | -0.102
GGTAGTAC | -0.0337
GACATCAA | 0.178
CTCCCGCA | -0.227
ATCTATAC | -0.0821
CCACTCCC | -0.27

Sequence | PBM E-score
CGGCTTGC | 0.0935
AACACAGC | 0.0485
CTCAACAC | 0.0911
GGTTGGGA | -0.0893
CAGGCGGC | -0.0499
CATATCGA | 0.0442
ACCGTACT | 0.286
AATCCTCT | -0.186
CACTTCAG | 0.0421
ACACTTAT | -0.0575
CTGACCCC | -0.328
ACCGTTGA | 0.148
ATACGCGA | 0.0862
CAGTCTCG | -0.227
CTCTACTA | 0.0396
ATACAGGG | -0.0394
GTTGGCGA | 0.0423
CCGGATCA | 0.039
AATACGAT | 0.276
CCGATGCA | -0.131
ATACCGCA | -0.0798
CTGGTCCA | -0.0942
